Data taken from PMC11058299, “Synthesis, molecular docking evaluation for LOX and COX-2 inhibition and determination of in-vivo analgesic potentials of aurone derivatives” (Heliyon, 2024).

Tested on: heat induced tail flicking latency
Assay: Tail immersion test
Assay type: in vivo
Conditions: 10 mg/kg oral, mice
Method: Group I: Control, Group II-XV: WE-1 to WE-7 (sample compounds) at dose of 10 mg/kg and 20 mg/kg and Group XVI: Standard. The control (Group I) was given normal saline. Group II-XV received 10 mg/kg and 20 mg/kg of test sample (WE-1 to WE-7).
The cut-off time was set at 25 s, and the time taken for the mice to flick their tails out of the water was recorded at 30, 60, 90, and 120-min intervals. An increase in the time of tail immersion was compared to the control group to determine the analgesic effect of the tested drugs. The percentage of inhibition was calculated at the time interval showing the highest effect.

## COc1cccc(C2(O)CCCCC2CN(C)C)c1 (stereo not shown) [Tramadol, reference compound]
  percentage inhibition of pain, tail immersion: 80.57%
